No constants are given. Whether binding was seen depends on the method and setting. In cells and extracts the contact can be indirect. Some results given as binding are weak or reduced against the parent protein; the word gives no strength.
Assays:
[1] = molecular target: T1, NOX2 (human (endogenous in peripheral blood monocytes)) (UniProt P04839); assay: proximity ligation; Duolink in situ PLA on fixed, permeabilised human monocytes treated with CSF-1 (100 ng/mL, 4 days) in the presence of 50 µM Q-VD-OPh
T1 sequence: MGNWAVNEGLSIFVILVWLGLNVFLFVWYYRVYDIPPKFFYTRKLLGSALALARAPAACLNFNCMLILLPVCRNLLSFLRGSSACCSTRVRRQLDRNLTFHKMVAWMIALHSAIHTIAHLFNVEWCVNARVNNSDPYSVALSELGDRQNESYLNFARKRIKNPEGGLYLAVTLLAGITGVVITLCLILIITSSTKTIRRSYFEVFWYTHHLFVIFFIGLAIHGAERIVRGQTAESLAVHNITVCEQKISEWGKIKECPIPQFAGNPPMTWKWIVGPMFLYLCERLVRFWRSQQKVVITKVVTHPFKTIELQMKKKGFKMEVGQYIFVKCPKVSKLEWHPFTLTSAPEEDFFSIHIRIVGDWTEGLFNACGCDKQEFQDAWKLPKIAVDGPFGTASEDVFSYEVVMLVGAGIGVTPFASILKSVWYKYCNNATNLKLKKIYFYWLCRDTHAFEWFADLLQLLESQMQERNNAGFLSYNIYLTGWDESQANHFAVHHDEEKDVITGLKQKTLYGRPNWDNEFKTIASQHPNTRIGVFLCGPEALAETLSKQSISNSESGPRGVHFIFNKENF

Sequences of proteins named here, by UniProt entry; tags and fusion partners are left off.
UniProt P14598: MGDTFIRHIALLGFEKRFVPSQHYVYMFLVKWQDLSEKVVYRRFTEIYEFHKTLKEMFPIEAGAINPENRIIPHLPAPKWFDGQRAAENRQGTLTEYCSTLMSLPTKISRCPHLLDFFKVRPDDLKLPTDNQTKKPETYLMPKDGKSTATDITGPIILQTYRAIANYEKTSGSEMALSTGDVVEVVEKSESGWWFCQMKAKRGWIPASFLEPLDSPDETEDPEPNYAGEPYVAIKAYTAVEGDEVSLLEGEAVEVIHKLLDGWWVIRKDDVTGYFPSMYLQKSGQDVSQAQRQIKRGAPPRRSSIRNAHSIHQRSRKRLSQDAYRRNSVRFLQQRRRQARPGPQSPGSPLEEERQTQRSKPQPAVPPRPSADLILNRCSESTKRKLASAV

[2] = molecular target: T1, NOX2 (human (endogenous in peripheral blood monocytes)); assay: proximity ligation; Duolink in situ PLA on fixed, permeabilised human monocytes treated with CSF-1 (100 ng/mL, 4 days); primary antibodies to the two proteins, confocal imaging

“p47^PHOX (endogenous, in monocytes) (from UniProt P14598 1-390)” was tested, and the binding [1] was “binds weakly” and the binding [2] was “binds”.

Source: article PMC9964254, “Caspase Inhibition Modulates Monocyte-Derived Macrophage Polarization in Damaged Tissues” (International Journal of Molecular Sciences, 2023)
